Test results taken from patent US6548268B1, “Chromogenic medium for detecting Staphylococcus aureus” (priority 1999, dated 2003).
For at least one compound, name, drawing or mass did not settle the structure.

Tested on: Staphylococcus epidermis
Experiment: Growth inhibition in the culture medium
Assay type: cell-based
Details: deferoxamine in the culture medium

CC(=O)N(O)CCCCCNC(=O)CCC(=O)N(O)CCCCCNC(=O)CCC(=O)N(O)CCCCCN [deferoxamine]
Inhibition of growth of Staphylococcus epidermis: inhibit the growth
